The experiment has as its system HEK293A TEAD-LUC reporter. The experiment in a line: TEAD-luciferase reporter activity (YAP activation), robust Z score vs plate; higher = stronger YAP/TEAD activation. The note with it: 24 h. A general note: In a reporter assay the amount or activity of a reporter protein is the signal.

Structures can show the parent of a compound that is named as a salt. Some of the results follow. Repeats in this data set agree poorly, so a single value says little.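 In a drug-repurposing library screen, luminescence reads luciferase driven by eight TEAD-binding elements, stably integrated into human kidney-derived cells. Compounds scoring over five robust Z scores above the plate mean are called hits.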

Regarding `O=C(O)C[C@H]1CCCCN1C(=O)/C=C/c1c(-c2ccccc2)nn2ccccc12`, the TEAD-luciferase reporter activity by setting is: (compound concentration: 200 nM) inactive: -1.14; (compound concentration: 2 uM) inactive: 1.6; (compound concentration: 10 uM) inactive: 0.408.

As to `Cc1ccc2oc(CN(Cc3ccccc3)C(=O)Nc3c(F)cc(F)cc3F)c(-c3ccc(Cl)cc3)c2c1`, the TEAD-luciferase reporter activity is inactive: 0.085 (compound concentration: 200 nM), inactive: 0.362 (compound concentration: 2 uM) and inactive: 2.05 (compound concentration: 10 uM).

As for `CC(C(=O)O)c1ccc(C2=CCCCC2)cc1` (stereo not drawn), the TEAD-luciferase reporter activity reads like this: (compound concentration: 200 nM) inactive: -0.682; (compound concentration: 2 uM) inactive: -0.443; (compound concentration: 10 uM) inactive: 0.509.

Regarding `CCn1cc(C(=O)O)c(=O)c2ccc(-c3ccncc3)cc21`, the TEAD-luciferase reporter activity runs as follows: (compound concentration: 200 nM) inactive: -0.301; (compound concentration: 2 uM) inactive: -0.625; (compound concentration: 10 uM) inactive: 4.8.

With `c1ccc(CCNc2nc(-c3ccccc3)cs2)cc1` [fanetizole], the TEAD-luciferase reporter activity (compound concentration: 200 nM) was active: 6.16, the TEAD-luciferase reporter activity (compound concentration: 2 uM) is inactive: 1.65 and the TEAD-luciferase reporter activity (compound concentration: 10 uM) is inactive: -0.302.

With `Cc1ccccc1N1CCN(C2CCc3cc(O)ccc3C2)CC1` (stereo not drawn) [Tolnapersine], the TEAD-luciferase reporter activity was inactive: -0.214 (compound concentration: 200 nM) and inactive: -1.21 (compound concentration: 10 uM).

For `O=C(CCCCCCNC(=O)c1cnc(N(c2ccccc2)c2ccccc2)nc1)NO`, the TEAD-luciferase reporter activity is, setting by setting: (compound concentration: 200 nM) inactive: -1.07; (compound concentration: 10 uM) active: 7.04.

Turning to `O=C(CCCCCCNC(=O)c1cnc(N(c2ccccc2)c2ccccc2)nc1)NO` [ricolinostat], the TEAD-luciferase reporter activity (compound concentration: 2 uM) is active: 14.

As to `CCN(CC)CCCNC(=O)C1Cc2cc(OC)c(OC)cc2S(=O)(=O)O1` (stereo not drawn), the TEAD-luciferase reporter activity reads like this: (compound concentration: 200 nM) inactive: -1.25; (compound concentration: 2 uM) inactive: 1.36; (compound concentration: 10 uM) inactive: 1.64.

In the case of `CN(C)CCCN1c2ccccc2CCc2ccccc21` [Imipramine hydrochloride], where the note is “compound concentration: 2 uM”, the TEAD-luciferase reporter activity was inactive: 1.09.

For `CN(C)CCCN1c2ccccc2CCc2ccccc21`, the TEAD-luciferase reporter activity by setting is: (compound concentration: 200 nM) inactive: 0.0579; (compound concentration: 10 uM) inactive: 1.78.

`O=C1N(c2ccccc2)c2ccccc2C12CCN(CC1CCCCC1)C2` (stereo not drawn): the TEAD-luciferase reporter activity (compound concentration: 200 nM) is inactive: -2.64 and the TEAD-luciferase reporter activity (compound concentration: 10 uM) was inactive: 0.433.

As to `O=C1CCc2c(Oc3ccc4c(c3)C3C(O4)C3c3nc4ccc(C(F)(F)F)cc4[nH]3)ccnc2N1` (stereo not drawn), the TEAD-luciferase reporter activity (compound concentration: 200 nM) is inactive: -0.173, the TEAD-luciferase reporter activity (compound concentration: 2 uM) is inactive: -2.16 and the TEAD-luciferase reporter activity (compound concentration: 10 uM) is inactive: 3.15.

As for `CC[C@H]1OC(=O)C(C)[C@@H](OC2C[C@@](C)(OC)C(O)[C@H](C)O2)[C@H](C)[C@@H](OC2OC(C)CC(N(C)C)[C@H]2O)[C@](C)(O)CC(C)/C(=N/OC)C(C)C(O)[C@]1(C)O` (stereo partly drawn) [Lexithromycin], the TEAD-luciferase reporter activity was inactive: -1.31 (compound concentration: 200 nM) and inactive: 3.21 (compound concentration: 10 uM).

Turning to `COC(=S)NCCn1c([N+](=O)[O-])cnc1C`, the TEAD-luciferase reporter activity is, setting by setting: (compound concentration: 200 nM) inactive: -2.09; (compound concentration: 2 uM) inactive: 2.93; (compound concentration: 10 uM) inactive: 0.934.

As to `CC(=O)CCN1CCC2=C(C)c3ccccc3C2C1` (stereo not drawn), the TEAD-luciferase reporter activity by setting is: (compound concentration: 200 nM) inactive: 1.92; (compound concentration: 2 uM) inactive: -2.17; (compound concentration: 10 uM) inactive: 3.05.

As for `O=C(O)c1ccc(OCCc2c(CCNS(=O)(=O)Cc3ccc(Cl)c(Cl)c3)n(C(c3ccccc3)c3ccccc3)c3ccc(Cl)cc23)cc1`, the TEAD-luciferase reporter activity is inactive: -2.73 (compound concentration: 200 nM), inactive: 0.473 (compound concentration: 2 uM) and inactive: 0.197 (compound concentration: 10 uM).

As to `COc1ccccc1N1CCN(CC(O)COc2cc(OC)c(OC)c(OC)c2)CC1` (stereo not drawn) [Enciprazine], the TEAD-luciferase reporter activity reads like this: (compound concentration: 200 nM) inactive: -0.437; (compound concentration: 2 uM) inactive: 1.25; (compound concentration: 10 uM) inactive: 1.43.

Consider `CCOc1cc(N)c(Cl)cc1C(=O)NCC1CN(Cc2ccc(F)cc2)CCO1` (stereo not drawn), for which the TEAD-luciferase reporter activity reads like this: (compound concentration: 200 nM) inactive: -2.59; (compound concentration: 10 uM) inactive: -0.28.

In the case of `CCOc1cc(N)c(Cl)cc1C(=O)NCC1CN(Cc2ccc(F)cc2)CCO1` (stereo not drawn) [Mosapride citrate], the TEAD-luciferase reporter activity (compound concentration: 2 uM) is inactive: -2.29.

Take `COc1ccc2cc1Oc1ccc(cc1)C[C@H]1c3c(cc4c(c3Oc3cc5c(cc3OC)CCN(C)[C@@H]5C2)OCO4)CCN1C` [Cepharanthine]: the TEAD-luciferase reporter activity by setting is: (compound concentration: 200 nM) inactive: -0.817; (compound concentration: 2 uM) inactive: 0.835; (compound concentration: 10 uM) inactive: 4.15.

As for `Cc1ncc(C[n+]2csc(CCO)c2C)c(N)n1` [Thiamine HCl (Vitamin B1)], the TEAD-luciferase reporter activity (compound concentration: 200 nM) is inactive: -1.03 and the TEAD-luciferase reporter activity (compound concentration: 10 uM) was inactive: -0.148.

With `Cc1ncc(C[n+]2csc(CCO)c2C)c(N)n1`, the TEAD-luciferase reporter activity (compound concentration: 2 uM) is inactive: 0.643.

Take `Cn1c(=O)c2c(ncn2CCOC(=O)C(C)(C)Oc2ccc(Cl)cc2)n(C)c1=O` [Etofilline clofibrate]: the TEAD-luciferase reporter activity runs as follows: (compound concentration: 200 nM) inactive: 0.177; (compound concentration: 2 uM) inactive: -0.965; (compound concentration: 10 uM) active: 7.05.

Regarding `NC(=O)NC1NC(=O)NC1=O` (stereo not drawn) [allantoin], the TEAD-luciferase reporter activity (compound concentration: 200 nM) was inactive: -2.42, the TEAD-luciferase reporter activity (compound concentration: 2 uM) is inactive: -1.59 and the TEAD-luciferase reporter activity (compound concentration: 10 uM) is inactive: -0.108.

For the compound `CC(C)(C)OC(=O)N[C@@H](Cc1ccccc1)[C@@H](O)CNC[C@H](O)[C@H](Cc1ccccc1)NC(=O)OC(C)(C)C`, the TEAD-luciferase reporter activity runs as follows: (compound concentration: 200 nM) inactive: -0.174; (compound concentration: 2 uM) inactive: -0.111; (compound concentration: 10 uM) inactive: 1.08.

With `CN1[C@@H]2CC[C@H]1C[C@@H](NC(=O)N1CC(C)(C)c3ccccc31)C2`, the TEAD-luciferase reporter activity by setting is: (compound concentration: 200 nM) inactive: 0.843; (compound concentration: 2 uM) inactive: -0.745; (compound concentration: 10 uM) inactive: -0.469.

Turning to `CC/C=C\C/C=C\C/C=C\C/C=C\C/C=C\CCCCOC(CC)C(=O)O` (stereo not drawn) [Icosabutate], the TEAD-luciferase reporter activity (compound concentration: 2 uM) was inactive: -0.784 and the TEAD-luciferase reporter activity (compound concentration: 10 uM) was inactive: 3.21.

These data come from the supplement of paper PMC10735217.
